Results from patent publication US20110053900A1, “PROGESTERONE ANTAGONISTS SUCH AS CDB-4124 IN THE TREATMENT OF BREAST CANCER” (Repros Therapeutics inc, priority 2008, published 2011).
For at least one compound, name, drawing or mass did not settle the structure.

Tested on: rabbit progesterone receptor (rbPR) and glucocorticoid receptor (rbGR)
Assay: Receptor-binding assays, ratio of relative binding affinities rbPR/rbGR
Conditions: RBA = EC50 of standard/EC50 of test compound x 100
Protocol: Certain antiprogestins were tested in receptor-binding assays for their ability to bind rabbit progesterone receptor (rbPR) and glucocorticoid receptor (rbGR). Briefly, cytosol containing PR or GR were prepared in TEGMD buffer (10 mM Tris, pH 7.2, 1.5 mM EDTA, 0.2 mM sodium molybdate, 10% glycerol, 1 mM DTT) from uterus or thymus, respectively, of estradiol-primed immature rabbits. For PR binding, the cytosol was incubated with 6 nM 1,2-[^3H]progesterone (50.0 Ci/mmole) and competitors were added at concentrations from 2 to 100 nM. For binding to GR, the cytosol was incubated with 6 nM 6,7-[^3H]-dexamethasone (40 Ci/mmol) and test compounds were added at concentrations from 20 to 100 nM. […]
C. Supernatants containing the [3H]-steroid receptor complexes were decanted into vials containing 4 ml Optifluor (Packard Instrument Co.), vortexed, equilibrated in a liquid scintillation counter for 30 minutes and then counted for 2 minutes. The ECso (Effective Concentration) for each standard curve and each of the compound curves was determined by entering the counting data into a four parameter sigmoidal computer program (RiaSmart® Immunoassay Data Reduction Program, Packard Instrument Co., Meriden, Conn.). Relative binding affinity (RBA) for each compound was calculated using the following equation: EC50 of standard/EC50 of test compound×100. […]

With `COCC(=O)[C@@]1(OC(C)=O)CC[C@H]2[C@@H]3CCC4=CC(=O)CCC4=C3[C@@H](c3ccc(N(C)C)cc3)C[C@@]21C` [CDB-4124, 21-methoxy-17α-acetoxy-11β-(4 N,N-dimethylaminophenyl)-19-norpregna-4,9-diene-3,20-dione] the “rbPR/rbGR (ratio of the relative binding affinities for rbPR and rbGR)” value was 1.58.
